According to the supplement of paper PMC10849652:
The list shows a part of the results. Residues, ends and D or L forms follow the SMILES beside them. *: point of attachment. Cbz = O=C(OCc1ccccc1)*

By UniProt entry, the sequences of proteins in these tests, tags left out. Where a name states a change or a piece, a line headed by the entry shows the natural chain unless it says otherwise.
UniProt P78344: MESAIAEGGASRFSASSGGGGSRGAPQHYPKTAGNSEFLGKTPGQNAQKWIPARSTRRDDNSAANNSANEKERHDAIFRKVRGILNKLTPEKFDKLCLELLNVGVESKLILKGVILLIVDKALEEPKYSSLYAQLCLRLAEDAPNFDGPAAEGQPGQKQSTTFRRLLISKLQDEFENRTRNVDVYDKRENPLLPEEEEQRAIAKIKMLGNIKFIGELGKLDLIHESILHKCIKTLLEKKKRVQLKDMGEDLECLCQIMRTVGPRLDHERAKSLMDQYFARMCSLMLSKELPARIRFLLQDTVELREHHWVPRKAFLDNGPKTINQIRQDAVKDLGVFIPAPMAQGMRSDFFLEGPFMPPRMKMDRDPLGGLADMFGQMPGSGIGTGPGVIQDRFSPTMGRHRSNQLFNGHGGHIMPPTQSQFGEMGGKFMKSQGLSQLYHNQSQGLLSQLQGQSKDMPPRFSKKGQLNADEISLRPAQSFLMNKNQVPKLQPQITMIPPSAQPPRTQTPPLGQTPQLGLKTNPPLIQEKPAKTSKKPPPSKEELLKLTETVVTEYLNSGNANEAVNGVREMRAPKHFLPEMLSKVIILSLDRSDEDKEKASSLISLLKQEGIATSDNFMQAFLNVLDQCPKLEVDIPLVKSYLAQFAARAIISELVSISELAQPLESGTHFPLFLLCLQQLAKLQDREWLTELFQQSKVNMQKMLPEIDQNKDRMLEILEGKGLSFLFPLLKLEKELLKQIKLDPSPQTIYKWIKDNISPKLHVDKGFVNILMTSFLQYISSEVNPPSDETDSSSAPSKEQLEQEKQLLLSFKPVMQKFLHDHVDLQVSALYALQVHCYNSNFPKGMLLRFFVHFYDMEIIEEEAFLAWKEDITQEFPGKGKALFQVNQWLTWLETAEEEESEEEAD
UniProt P55010, whole entry, looked up: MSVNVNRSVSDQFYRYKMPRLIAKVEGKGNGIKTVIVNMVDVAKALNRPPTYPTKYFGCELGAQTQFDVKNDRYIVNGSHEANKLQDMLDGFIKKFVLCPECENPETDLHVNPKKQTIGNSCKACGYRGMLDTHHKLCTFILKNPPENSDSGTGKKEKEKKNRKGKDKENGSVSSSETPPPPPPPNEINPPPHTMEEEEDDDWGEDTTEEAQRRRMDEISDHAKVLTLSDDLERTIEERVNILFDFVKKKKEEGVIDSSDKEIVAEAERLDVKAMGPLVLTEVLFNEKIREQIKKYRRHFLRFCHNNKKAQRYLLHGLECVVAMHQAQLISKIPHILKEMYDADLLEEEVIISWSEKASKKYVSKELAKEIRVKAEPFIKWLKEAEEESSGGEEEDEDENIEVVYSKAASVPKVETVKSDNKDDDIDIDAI
UniProt O75356: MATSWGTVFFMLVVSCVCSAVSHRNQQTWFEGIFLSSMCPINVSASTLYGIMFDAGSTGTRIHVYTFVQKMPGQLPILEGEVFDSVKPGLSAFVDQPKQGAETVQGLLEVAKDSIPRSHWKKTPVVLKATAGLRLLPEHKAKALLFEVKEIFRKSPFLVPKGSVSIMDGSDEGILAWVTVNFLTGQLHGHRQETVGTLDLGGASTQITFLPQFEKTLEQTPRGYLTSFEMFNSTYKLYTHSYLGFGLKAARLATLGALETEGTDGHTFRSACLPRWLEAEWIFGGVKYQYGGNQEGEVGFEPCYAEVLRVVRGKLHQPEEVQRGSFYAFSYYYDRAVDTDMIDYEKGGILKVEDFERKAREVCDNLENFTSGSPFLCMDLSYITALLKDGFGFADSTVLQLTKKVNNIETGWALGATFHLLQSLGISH
UniProt O43324: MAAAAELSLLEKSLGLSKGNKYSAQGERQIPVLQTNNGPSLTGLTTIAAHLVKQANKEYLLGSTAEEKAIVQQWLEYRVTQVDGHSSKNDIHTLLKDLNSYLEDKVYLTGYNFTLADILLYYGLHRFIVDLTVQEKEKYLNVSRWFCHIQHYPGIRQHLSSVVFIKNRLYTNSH
UniProt Q5VTE0, whole entry, looked up: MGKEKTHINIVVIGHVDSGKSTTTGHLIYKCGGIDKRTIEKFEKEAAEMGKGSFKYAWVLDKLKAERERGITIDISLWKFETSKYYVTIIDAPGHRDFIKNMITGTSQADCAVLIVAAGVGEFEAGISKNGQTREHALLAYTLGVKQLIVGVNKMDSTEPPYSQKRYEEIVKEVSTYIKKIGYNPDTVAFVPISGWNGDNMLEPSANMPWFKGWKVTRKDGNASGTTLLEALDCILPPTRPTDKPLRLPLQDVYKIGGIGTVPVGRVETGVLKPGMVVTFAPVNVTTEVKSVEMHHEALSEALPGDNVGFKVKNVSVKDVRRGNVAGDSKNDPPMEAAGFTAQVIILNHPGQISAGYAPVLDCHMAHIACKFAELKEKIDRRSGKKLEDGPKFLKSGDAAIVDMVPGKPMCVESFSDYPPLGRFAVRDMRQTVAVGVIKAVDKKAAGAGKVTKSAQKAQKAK
UniProt P63241: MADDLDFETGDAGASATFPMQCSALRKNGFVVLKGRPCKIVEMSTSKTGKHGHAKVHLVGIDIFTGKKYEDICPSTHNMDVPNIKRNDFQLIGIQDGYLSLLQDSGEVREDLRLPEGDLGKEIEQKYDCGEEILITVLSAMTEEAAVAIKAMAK
UniProt Q92979: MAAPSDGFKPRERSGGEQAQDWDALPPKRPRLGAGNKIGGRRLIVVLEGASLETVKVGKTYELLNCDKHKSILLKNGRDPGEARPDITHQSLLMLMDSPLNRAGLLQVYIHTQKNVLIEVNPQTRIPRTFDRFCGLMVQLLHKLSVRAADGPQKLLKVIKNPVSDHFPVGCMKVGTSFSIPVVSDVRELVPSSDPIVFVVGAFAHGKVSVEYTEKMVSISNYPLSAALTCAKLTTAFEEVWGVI
UniProt O43402: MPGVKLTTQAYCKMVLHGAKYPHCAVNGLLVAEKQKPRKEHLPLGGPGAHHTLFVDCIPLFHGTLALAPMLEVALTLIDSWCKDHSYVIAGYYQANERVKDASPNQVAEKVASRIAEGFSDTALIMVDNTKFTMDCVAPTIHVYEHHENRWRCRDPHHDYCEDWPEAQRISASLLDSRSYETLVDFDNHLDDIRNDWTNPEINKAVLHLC
UniProt Q9BY44: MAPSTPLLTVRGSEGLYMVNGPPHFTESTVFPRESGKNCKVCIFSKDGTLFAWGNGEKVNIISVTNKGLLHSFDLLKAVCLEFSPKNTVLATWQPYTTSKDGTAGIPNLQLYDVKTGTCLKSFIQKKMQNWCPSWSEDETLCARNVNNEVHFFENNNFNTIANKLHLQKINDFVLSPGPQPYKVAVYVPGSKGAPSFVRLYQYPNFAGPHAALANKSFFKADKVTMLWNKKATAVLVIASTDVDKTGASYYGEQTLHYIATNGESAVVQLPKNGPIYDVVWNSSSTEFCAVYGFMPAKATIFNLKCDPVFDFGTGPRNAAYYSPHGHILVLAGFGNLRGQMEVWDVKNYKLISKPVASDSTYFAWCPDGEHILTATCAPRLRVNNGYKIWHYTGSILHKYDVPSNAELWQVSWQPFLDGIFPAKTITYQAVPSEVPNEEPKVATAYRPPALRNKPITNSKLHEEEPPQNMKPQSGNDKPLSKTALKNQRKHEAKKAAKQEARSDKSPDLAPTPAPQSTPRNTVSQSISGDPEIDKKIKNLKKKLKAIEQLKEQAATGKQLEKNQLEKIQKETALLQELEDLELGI
UniProt Q9H4M9: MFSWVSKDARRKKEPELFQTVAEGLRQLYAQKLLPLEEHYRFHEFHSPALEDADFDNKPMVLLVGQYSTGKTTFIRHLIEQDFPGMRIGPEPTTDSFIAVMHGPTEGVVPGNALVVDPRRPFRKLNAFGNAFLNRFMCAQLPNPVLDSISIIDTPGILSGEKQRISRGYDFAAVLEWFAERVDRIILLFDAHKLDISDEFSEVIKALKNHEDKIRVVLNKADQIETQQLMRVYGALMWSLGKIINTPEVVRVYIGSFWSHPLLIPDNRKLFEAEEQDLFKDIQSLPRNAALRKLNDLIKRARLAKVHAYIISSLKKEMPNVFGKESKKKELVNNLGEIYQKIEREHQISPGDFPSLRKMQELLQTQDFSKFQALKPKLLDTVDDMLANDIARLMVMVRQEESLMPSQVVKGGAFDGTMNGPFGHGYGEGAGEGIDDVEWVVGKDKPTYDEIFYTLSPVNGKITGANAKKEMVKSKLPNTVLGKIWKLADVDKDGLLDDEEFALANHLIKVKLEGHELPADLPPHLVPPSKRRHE
UniProt Q15717, whole entry, looked up: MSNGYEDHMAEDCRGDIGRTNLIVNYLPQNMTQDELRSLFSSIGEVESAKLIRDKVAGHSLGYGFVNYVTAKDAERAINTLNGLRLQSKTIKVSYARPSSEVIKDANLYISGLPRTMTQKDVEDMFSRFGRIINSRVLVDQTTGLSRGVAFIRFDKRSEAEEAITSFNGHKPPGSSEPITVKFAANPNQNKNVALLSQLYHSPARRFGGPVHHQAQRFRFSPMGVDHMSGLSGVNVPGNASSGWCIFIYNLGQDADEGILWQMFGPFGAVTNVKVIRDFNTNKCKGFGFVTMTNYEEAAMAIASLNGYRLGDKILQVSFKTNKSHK
UniProt O95834: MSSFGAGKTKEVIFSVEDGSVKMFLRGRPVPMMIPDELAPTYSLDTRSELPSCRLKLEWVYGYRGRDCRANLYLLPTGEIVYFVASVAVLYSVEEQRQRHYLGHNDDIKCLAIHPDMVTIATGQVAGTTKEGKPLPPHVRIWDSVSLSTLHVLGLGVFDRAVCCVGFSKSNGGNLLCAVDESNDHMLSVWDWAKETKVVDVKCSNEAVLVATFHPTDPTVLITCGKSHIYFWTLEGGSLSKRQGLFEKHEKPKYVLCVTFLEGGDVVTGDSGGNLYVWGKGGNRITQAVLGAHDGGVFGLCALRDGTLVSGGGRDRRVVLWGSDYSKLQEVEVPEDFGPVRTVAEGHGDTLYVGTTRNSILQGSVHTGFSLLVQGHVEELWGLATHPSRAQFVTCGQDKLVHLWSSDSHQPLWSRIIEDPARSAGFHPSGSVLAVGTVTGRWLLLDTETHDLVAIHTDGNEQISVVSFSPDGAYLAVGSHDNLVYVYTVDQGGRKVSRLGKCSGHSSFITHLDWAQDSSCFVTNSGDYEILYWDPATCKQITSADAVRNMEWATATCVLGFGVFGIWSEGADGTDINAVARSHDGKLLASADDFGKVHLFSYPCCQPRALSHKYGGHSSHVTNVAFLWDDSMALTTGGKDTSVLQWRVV
UniProt Q14232, whole entry, looked up: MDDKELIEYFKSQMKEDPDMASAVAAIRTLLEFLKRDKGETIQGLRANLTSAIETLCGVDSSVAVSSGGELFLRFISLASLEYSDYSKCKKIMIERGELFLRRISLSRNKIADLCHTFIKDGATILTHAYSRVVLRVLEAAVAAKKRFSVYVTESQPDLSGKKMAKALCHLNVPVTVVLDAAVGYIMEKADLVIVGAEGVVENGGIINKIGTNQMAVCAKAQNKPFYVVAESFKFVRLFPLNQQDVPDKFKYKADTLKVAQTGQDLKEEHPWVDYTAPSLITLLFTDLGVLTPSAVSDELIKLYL
UniProt P20042, whole entry, looked up: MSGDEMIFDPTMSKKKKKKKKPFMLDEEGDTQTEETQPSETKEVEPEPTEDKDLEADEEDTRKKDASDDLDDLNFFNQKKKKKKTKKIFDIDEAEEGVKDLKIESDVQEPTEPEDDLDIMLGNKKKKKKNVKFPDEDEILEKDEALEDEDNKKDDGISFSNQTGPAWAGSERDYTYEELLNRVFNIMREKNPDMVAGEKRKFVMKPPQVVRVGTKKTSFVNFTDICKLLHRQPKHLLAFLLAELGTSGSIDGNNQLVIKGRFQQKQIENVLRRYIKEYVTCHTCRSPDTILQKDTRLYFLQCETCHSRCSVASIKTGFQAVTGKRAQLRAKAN
UniProt Q13144, whole entry, looked up: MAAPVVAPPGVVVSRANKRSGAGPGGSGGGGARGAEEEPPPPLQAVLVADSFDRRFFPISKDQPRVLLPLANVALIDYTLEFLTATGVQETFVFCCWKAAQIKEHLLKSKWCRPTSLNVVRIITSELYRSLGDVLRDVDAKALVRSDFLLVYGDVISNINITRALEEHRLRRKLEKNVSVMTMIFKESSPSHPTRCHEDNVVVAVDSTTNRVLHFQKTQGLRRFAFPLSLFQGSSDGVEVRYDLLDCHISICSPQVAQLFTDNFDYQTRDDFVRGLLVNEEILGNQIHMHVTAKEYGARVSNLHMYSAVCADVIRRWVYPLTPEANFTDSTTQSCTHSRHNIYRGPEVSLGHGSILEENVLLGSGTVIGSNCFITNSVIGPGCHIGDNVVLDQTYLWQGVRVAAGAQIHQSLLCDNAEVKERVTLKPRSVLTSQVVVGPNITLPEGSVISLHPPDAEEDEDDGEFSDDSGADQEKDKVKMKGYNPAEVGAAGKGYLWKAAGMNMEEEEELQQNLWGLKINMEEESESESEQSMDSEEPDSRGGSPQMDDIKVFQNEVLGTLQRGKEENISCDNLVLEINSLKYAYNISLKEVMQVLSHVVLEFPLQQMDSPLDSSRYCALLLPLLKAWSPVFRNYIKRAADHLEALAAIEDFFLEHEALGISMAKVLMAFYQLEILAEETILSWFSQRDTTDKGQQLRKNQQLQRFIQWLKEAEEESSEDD

Legend:
Experiment in all cases: log2 fold change, soluble protein after heating vs DMSO (PISA); higher = thermal stabilisation; K562 cells, 10 uM, 30 min; active = over 0.2 and 3.5 SD of the protein, either way, in both replicates (recomputed)
[1] = compound: C#Cc1cccc(Nc2ncnc3cc(OCCOC)c(OCCOC)cc23)c1 [erlotinib]
Outline: (§1)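 K562 cells at 2×10^6 cells/mL were treated for 30 min with 10 μM compound, and aliquots were heated for 3 min over 48°C-58°C before pooling. Extraction used PBS with 0.5% NP-40 at 4°C, and soluble protein was the supernatant after 21,000xg for 90 min, measured by TMTpro 16plex LC-MS/MS with channel sums equalised. Thermal stability values, relative to control samples and from duplicates, are log2 fold changes.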

[2] = compound: C/C(=N\NC(=O)C1=CC(=CC=C1)S(=O)(=O)N2CCOCC2)/C3=C(C=CC(=C3)Cl)O
Outline: as §1

[3] = compound: C1=CC(=C(C=C1Cl)C2=NC3=NC=CN=C3C(=N2)NC4=CC=NC=C4)F
Outline: as §1

[4] = compound: C1=CC(=CC=C1C2=NC3=C(N2)C=C(C=C3)C(=O)N)OC4=CC=C(C=C4)Cl
Outline: as §1

[5] = compound: C1=CC2=C(C=CC(=C2)/C=C\3/C(=O)NC(=NCC4=CC=CS4)S3)N=C1
Outline: as §1

[6] = compound: C1=CC2=NC=CN=C2C=C1/C=C/3\C(=O)NC(=O)S3
Outline: as §1

[7] = compound: C1=CC=C(C=C1)C2=NC(=C(N2)C3=CC=NC=C3)C4=CC(=C(C=C4)Cl)O
Outline: as §1

[8] = compound: C1=CC=C2C(=C1)C3=NNC4=CC=CC(=C43)C2=O
Outline: as §1

[9] = compound: C1CCN(C1)C(=O)NC2=CC=CC(=C2)NC3=NC=C(C(=N3)NCCC4=CN=CN4)Br
Outline: as §1

[10] = compound: C1CN(CCC1(CC2=CC=C(C=C2)Cl)N)C3=NC=NC4=C3C=CN4
Outline: as §1

[11] = compound: C1COCCN1CCN2C3=CC=CC=C3N=C2NC(=O)C4=CC(=CC=C4)[N+](=O)[O-] [IRAK-1-4 Inhibitor I]
Outline: as §1

[12] = compound: C=CC(=O)N1CCC[C@@H](n2nc(-c3ccc(Oc4ccccc4)cc3)c3c(N)ncnc32)C1 [ibrutinib]
Outline: as §1

[13] = compound: CC(=O)c1cnc2ccc(-c3cc(Cl)c(O)c(Cl)c3)nc2c1N[C@H]1CC[C@H](CN(C)C)CC1
Outline: as §1

[14] = compound: CC(C)(C)Cn1c(N)nc2ccc(-c3[nH]c(C(C)(C)C)nc3-c3ccc(F)cc3)nc21 [ralimetinib]
Outline: as §1

[15] = compound: CC(C)(O)CC(=O)NCCn1ccc2ncnc(Nc3ccc(Oc4cccc(C(F)(F)F)c4)c(Cl)c3)c21
Outline: as §1

[16] = compound: CC(C)C1=C2N=C(C=C(N2N=C1)NCC3=CC=CC=C3)NCCCCCCN
Outline: as §1

[17] = compound: CC(C)C[C@@H](C=O)NC(=O)[C@H](CC(C)C)NC(=O)[C@H](CC(C)C)NC(=O)OCc1ccccc1
Outline: as §1

[18] = compound: CC(C)N(C[C@H]1O[C@@H](n2cnc3c(N)ncnc32)[C@H](O)[C@@H]1O)[C@H]1C[C@@H](CCc2nc3cc(C(C)(C)C)ccc3[nH]2)C1 [pinometostat]
Outline: as §1

[19] = compound: CC1=C(C(CC(=O)N1)C2=CC=C(C=C2)C(F)(F)F)C(=O)NC3=C(C=C4C(=C3)C=NN4)F
Outline: as §1

[20] = compound: CC1=C(C2=C(C=C1)C(=O)C3=CC=CC=C3N2CCCN)C
Outline: as §1

Measured: log2 fold change

EIF4G2 (UniProt P78344)
inactive: [1] 0.052 | [2] 0.024 | [3] -0.373 | [4] -0.036 | [5] 0.058 | [6] -0.016 | [7] -0.037 | [8] 0.025 | [9] -0.09 | [10] -0.17 | [11] -0.112 | [12] -0.065 | [13] 0.018 | [14] 0.224 | [15] 0.005 | [16] -0.352 | [17] 0.15 | [18] 0.425 | [19] -0.074 | [20] -0.046

EHD4 (UniProt Q9H223)
inactive: [1] 0.063 | [2] 0.005 | [3] 0.049 | [4] 0.008 | [5] 0.009 | [6] 0.011 | [7] 0.008 | [8] 0.029 | [9] 0 | [10] 0.013 | [11] 0.044 | [12] -0.01 | [13] -0.044 | [14] -0.045 | [15] -0.041 | [16] -0.018 | [17] 0.04 | [18] 0.016 | [19] 0.002 | [20] 0.01

EIF5 (UniProt P55010)
inactive: [1] 0.002 | [2] 0.07 | [3] 0.003 | [4] -0.002 | [5] 0.023 | [6] 0.006 | [7] 0.013 | [8] 0.026 | [9] 0.001 | [10] 0.008 | [11] 0.025 | [12] -0.015 | [13] -0.004 | [14] -0.02 | [15] 0.001 | [16] -0.033 | [17] 0.014 | [18] -0.017 | [19] -0.016 | [20] 0.09

ENTPD5 (UniProt O75356)
inactive: [1] -0.017 | [2] 0.071 | [3] -0.053 | [4] 0.029 | [5] 0.139 | [6] -0.04 | [7] -0.009 | [8] 0.047 | [9] -0.049 | [10] -0.107 | [11] 0.019 | [12] -0.015 | [13] -0.042 | [14] -0.031 | [15] -0.045 | [16] -0.012 | [17] -0.008 | [18] -0.034 | [19] -0.056 | [20] -0.013

EEF1E1 (UniProt O43324)
inactive: [1] 0.032 | [2] -0.012 | [3] -0.067 | [4] -0.05 | [5] 0.012 | [6] 0.02 | [7] 0.005 | [8] 0 | [9] 0.015 | [10] -0.047 | [11] -0.005 | [12] -0.029 | [13] 0.111 | [14] 0.054 | [15] 0.004 | [16] -0.145 | [17] 0.051 | [18] 0.191 | [19] 0.019 | [20] -0.01

EEF1A1P5 (UniProt Q5VTE0)
inactive: [1] 0.027 | [2] -0.009 | [3] 0.074 | [4] 0.005 | [5] 0.009 | [6] 0.004 | [7] 0.038 | [8] 0.005 | [9] 0.109 | [10] 0.082 | [11] 0.029 | [12] -0.017 | [13] -0.02 | [14] -0.013 | [15] -0.03 | [16] -0.009 | [17] 0.005 | [18] -0.028 | [19] 0.007 | [20] -0.082

EIF5A isoform 2 (UniProt P63241)
inactive: [1] -0.001 | [2] 0.116 | [3] 0.074 | [4] -0.033 | [5] 0.024 | [6] 0.027 | [7] 0.089 | [8] 0.033 | [9] -0.049 | [10] -0.016 | [11] 0.004 | [12] -0.025 | [13] 0.027 | [14] 0.063 | [15] -0.093 | [16] -0.153 | [17] -0.059 | [18] -0.027 | [19] -0.068 | [20] 0.045

EMG1 (UniProt Q92979)
inactive: [1] -0.096 | [2] -0.045 | [3] -0.145 | [4] 0.07 | [5] -0.009 | [6] 0.012 | [7] 0.082 | [8] -0.001 | [9] -0.03 | [10] -0.034 | [11] -0.062 | [12] 0.046 | [13] 0.054 | [14] 0.097 | [15] 0.041 | [16] 0.11 | [17] 0.028 | [18] 0.046 | [19] -0.018 | [20] 0.104

EMC8 (UniProt O43402)
inactive: [1] -0.007 | [2] -0.069 | [3] 0.063 | [4] 0.008 | [5] 0.035 | [6] 0.054 | [7] -0.003 | [8] -0.005 | [9] 0.002 | [10] 0.038 | [11] 0.089 | [12] 0.012 | [13] 0.01 | [14] -0.026 | [15] -0.029 | [16] 0.032 | [17] -0.007 | [18] 0.01 | [19] -0.013 | [20] 0

EIF2A (UniProt Q9BY44)
inactive: [1] -0.043 | [2] -0.04 | [3] -0.098 | [4] 0.03 | [5] -0.068 | [6] -0.016 | [7] 0.019 | [8] 0.012 | [9] -0.021 | [10] -0.059 | [11] -0.026 | [12] 0.024 | [13] 0.044 | [14] 0.083 | [15] 0.016 | [16] 0.043 | [17] 0.01 | [18] 0.072 | [19] -0.019 | [20] -0.136

Four consecutive entries out of the list so far, quoted:
EEF1A1P5 (UniProt Q5VTE0)
inactive: [1] 0.027 | [2] -0.009 | [3] 0.074 | [4] 0.005 | [5] 0.009 | [6] 0.004 | [7] 0.038 | [8] 0.005 | [9] 0.109 | [10] 0.082 | [11] 0.029 | [12] -0.017 | [13] -0.02 | [14] -0.013 | [15] -0.03 | [16] -0.009 | [17] 0.005 | [18] -0.028 | [19] 0.007 | [20] -0.082

EIF5A isoform 2 (UniProt P63241)
inactive: [1] -0.001 | [2] 0.116 | [3] 0.074 | [4] -0.033 | [5] 0.024 | [6] 0.027 | [7] 0.089 | [8] 0.033 | [9] -0.049 | [10] -0.016 | [11] 0.004 | [12] -0.025 | [13] 0.027 | [14] 0.063 | [15] -0.093 | [16] -0.153 | [17] -0.059 | [18] -0.027 | [19] -0.068 | [20] 0.045

EMG1 (UniProt Q92979)
inactive: [1] -0.096 | [2] -0.045 | [3] -0.145 | [4] 0.07 | [5] -0.009 | [6] 0.012 | [7] 0.082 | [8] -0.001 | [9] -0.03 | [10] -0.034 | [11] -0.062 | [12] 0.046 | [13] 0.054 | [14] 0.097 | [15] 0.041 | [16] 0.11 | [17] 0.028 | [18] 0.046 | [19] -0.018 | [20] 0.104

EMC8 (UniProt O43402)
inactive: [1] -0.007 | [2] -0.069 | [3] 0.063 | [4] 0.008 | [5] 0.035 | [6] 0.054 | [7] -0.003 | [8] -0.005 | [9] 0.002 | [10] 0.038 | [11] 0.089 | [12] 0.012 | [13] 0.01 | [14] -0.026 | [15] -0.029 | [16] 0.032 | [17] -0.007 | [18] 0.01 | [19] -0.013 | [20] 0

(cont.)

EHD1 (UniProt Q9H4M9)
inactive: [1] 0.038 | [2] 0.013 | [3] 0.047 | [4] -0.002 | [5] 0.03 | [6] 0.002 | [7] 0.016 | [8] 0.009 | [9] -0.021 | [10] 0.019 | [11] 0.046 | [12] -0.021 | [13] -0.049 | [14] -0.007 | [15] -0.045 | [16] -0.034 | [17] -0.013 | [18] -0.021 | [19] 0.003 | [20] 0.013

ELAVL1 isoform 2 (UniProt Q15717)
inactive: [1] -0.101 | [2] -0.084 | [3] -0.296 | [4] 0.047 | [5] -0.128 | [6] 0.054 | [7] -0.065 | [8] 0.084 | [9] 0.022 | [10] -0.053 | [11] -0.119 | [12] -0.019 | [13] 0.025 | [14] 0.184 | [15] 0.034 | [16] -0.001 | [17] 0.263 | [18] 0.261 | [19] -0.019 | [20] -0.042

EML2 isoform 3 (UniProt O95834)
inactive: [1] -0.087 | [2] 0.065 | [3] 0.062 | [4] 0.036 | [5] 0.02 | [6] 0.012 | [7] 0.05 | [8] 0.027 | [9] 0.031 | [10] -0.014 | [11] 0.03 | [12] 0.01 | [13] -0.015 | [14] 0.015 | [15] -0.019 | [16] -0.033 | [17] -0.019 | [18] 0.008 | [19] 0.001 | [20] 0.08

EIF2B1 (UniProt Q14232)
inactive: [1] 0 | [2] 0.05 | [3] 0.045 | [4] -0.004 | [5] -0.01 | [6] -0.017 | [7] 0.012 | [8] 0.017 | [9] -0.037 | [10] -0.017 | [11] 0.018 | [12] 0.038 | [13] 0.021 | [14] 0.013 | [15] -0.009 | [16] 0.025 | [17] -0.052 | [18] -0.004 | [19] -0.003 | [20] 0.012

EIF2S2 (UniProt P20042)
inactive: [1] -0.022 | [2] -0.071 | [3] -0.148 | [4] -0.013 | [5] -0.087 | [6] 0.013 | [7] -0.028 | [8] -0.021 | [9] 0.011 | [10] -0.054 | [11] -0.069 | [12] 0.035 | [13] 0.032 | [14] 0.099 | [15] 0.071 | [16] 0.077 | [17] 0.077 | [18] 0.111 | [19] 0.03 | [20] 0.118

EIF2B5 (UniProt Q13144)
inactive: [1] -0.016 | [2] 0.062 | [3] -0.044 | [4] 0.065 | [5] 0.046 | [6] -0.01 | [7] -0.004 | [8] -0.038 | [9] 0.111 | [10] -0.102 | [11] -0.012 | [12] -0.002 | [13] 0.02 | [14] 0.02 | [15] -0.018 | [16] -0.078 | [17] 0.023 | [18] 0.077 | [19] -0.015 | [20] 0.04
